According to patent US9399663B2, “Competitive inhibitor of GP120” (priority 2014, dated 2016):
Several values for one entry are separate records, joined by “and”; a condition that tells them apart may be missing. Equal values may be shown once. At least one peptide structure holds a part that was inferred or is arguable (an end, a ring closure or a residue). Residues, ends and D or L forms follow the SMILES beside them.

Sequences of proteins named here, by UniProt entry; tags and fusion partners are left off.
UniProt Q13509, whole entry: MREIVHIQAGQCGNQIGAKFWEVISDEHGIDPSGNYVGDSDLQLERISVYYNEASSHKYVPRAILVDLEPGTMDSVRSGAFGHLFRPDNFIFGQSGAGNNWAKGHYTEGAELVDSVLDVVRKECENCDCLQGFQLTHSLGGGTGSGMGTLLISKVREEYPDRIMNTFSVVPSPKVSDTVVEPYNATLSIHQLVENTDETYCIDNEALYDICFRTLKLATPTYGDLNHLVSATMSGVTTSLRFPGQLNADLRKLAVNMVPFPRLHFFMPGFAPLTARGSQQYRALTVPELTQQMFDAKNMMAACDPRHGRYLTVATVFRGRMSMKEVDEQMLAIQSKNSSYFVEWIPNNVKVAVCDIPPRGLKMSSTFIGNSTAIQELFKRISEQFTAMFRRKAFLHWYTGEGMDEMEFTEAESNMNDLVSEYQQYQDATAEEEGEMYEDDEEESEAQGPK

What was measured:
tubulin β-3 = molecular target: T1, tubulin β-3 (Homo sapiens, UniProt Q13509); assay: Dot blot of Helix-A and Helix-B peptides with tubulin β-3; type: binding; conditions: 2 μg peptide spotted; 5 μg tubulin β-3
T1 construct: purchased MyBioSource, San Diego, Calif

primary cortical neurons = assay: Mitochondrial distribution and morphology in neurons (confocal, STORM); type: cell-based, rat; conditions: gp120ADA, 24 hours
assembled MTs = assay: SPR (BIACORE T200) binding to immobilized assembled microtubules; design: species or system Porcine; conditions: 1 uM peptide alone; 60 sec injection
Procedure: (§1) Surface plasmon resonance (SPR). BIACORE® T200™ was used to determine the kinetic parameters for the binding of recombinant TUBB3, tubulin dimer, and assembled microtubules (ligands) to the various isoforms of gp120 or related peptides (analytes). Recombinant TUBB3, tubulin dimer, and assembled MTs were covalently attached to different flow cells of a carboxymethyldextran (CM5) sensor chip by amine coupling. The chip surface was activated for 720 sec at 10 μL/min with of 1:1 mixture of 0.1 M N-Hydroxysuccinimide (NHS) and 0.5 M 1-Ethyl-3-(-3-dimethylaminopropyl)-carbodiimide hydrochloride (EDC). […] After ligand capture, the surfaces were deactivated by injecting 1 M ethanolamine for 720 sec at 10 μL/min. HBS-P (10 mM HEPES, pH7.4, 150 mM NaCl, 0.05% P-20) with 2 mM MgCl2 used as the running buffer. Flow cell 1 on each chip was left empty and used for reference surface. TUBB3 (1040 RU), tubulin dimer (2086 RU), and assembled MTs (990 RU) were captured on the remaining 3 flow cells. […] Data was analyzed with BIACORE® T200™ Evaluation Software (version 1) to determine the equilibrium dissociation constant (KD) from a 1:1 binding model. […]
(§2) Recombinant TUBB3, tubulin dimer, and assembled MTs from bovine brains were immobilized on a BIACORE® CM5 chip by amine coupling. […] The kinetics of interaction was analyzed using a BIACORE® T200™ instrument. […]

rat cortical neurons = assay: gp120-mediated neurite pruning / synaptic simplification (MAP-2 positive processes); type: cell-based; conditions: gp120s 5 nM, peptide or nano 5 μM, 24 hours
[1] = system: gp120 binding to tubulin dimer; assay: SPR competition: gp120 premixed with Helix peptide injected over tubulin dimer; design: species or system Porcine; conditions: for SPR response (3-1) RU, Fc3: Tubulin Dimer 1900 RU: 60 sec injection
Procedure: BIACORE® T200™ was used to determine the kinetic parameters for the binding of recombinant TUBB3, tubulin dimer, and assembled MTs to gp120s in the absence and presence of Helix-A peptide. Gp120s (100 nM) were injected over the surface alone or as a premix with Helix-A peptides (10 μM). Representative data are from one of three independent experiments.
(§3) Surface plasmon resonance (SPR). BIACORE® T200™ was used to determine the kinetic parameters for the binding of recombinant TUBB3, tubulin dimer, and assembled microtubules (ligands) to the various isoforms of gp120 or related peptides (analytes). Recombinant TUBB3, tubulin dimer, and assembled MTs were covalently attached to different flow cells of a carboxymethyldextran (CM5) sensor chip by amine coupling. The chip surface was activated for 720 sec at 10 μL/min with of 1:1 mixture of 0.1 M N-Hydroxysuccinimide (NHS) and 0.5 M 1-Ethyl-3-(-3-dimethylaminopropyl)-carbodiimide hydrochloride (EDC). […] After ligand capture, the surfaces were deactivated by injecting 1 M ethanolamine for 720 sec at 10 μL/min. HBS-P (10 mM HEPES, pH7.4, 150 mM NaCl, 0.05% P-20) with 2 mM MgCl2 used as the running buffer. Flow cell 1 on each chip was left empty and used for reference surface. TUBB3 (1040 RU), tubulin dimer (2086 RU), and assembled MTs (990 RU) were captured on the remaining 3 flow cells. Kinetic studies were performed by injecting different concentrations of the analytes in triplicate. The chip surface was regenerated by with 10 mM glycine pH 1.5 injected for 30 sec at a flow rate of 100 μL/min. Each sample was injected for 60 sec (contact time) followed by a dissociation time of 300 sec at a flow rate of 100 μL/min. Data was analyzed with BIACORE® T200™ Evaluation Software (version 1) to determine the equilibrium dissociation constant (KD) from a 1:1 binding model. Binding studies with peptides Helix A and Helix B were done in the same way as described above. Kinetic studies were performed by injecting different concentrations (20 μM, 10 μM, 5 μM, 2.5 μM, 1.25 μM and 0.625 μM) of Helix A and Helix B. […]

recombinant TUBB3 = molecular target: T2, recombinant TUBB3 (Homo sapiens, UniProt Q13509); assay: SPR (BIACORE T200) binding to immobilized TUBB3; conditions: 60 sec injection
T2 construct: purchased MyBioSource, San Diego, Calif
Procedure: as §1, with “[…] Kinetic studies” for “TUBB3 (1040 RU), tubulin dimer (2086 RU), and assembled MTs (990 RU)”, “performed by injecting different concentrations of” for “captured on”, “analytes in triplicate.” for “remaining 3 flow cells.”
as §2

tubulin dimer = assay: SPR (BIACORE T200) binding to immobilized tubulin dimer; design: species or system Porcine; conditions: 1 uM peptide alone; 60 sec injection
Procedure: as §1, with “[…] Kinetic studies” for “TUBB3 (1040 RU), tubulin dimer (2086 RU), and assembled MTs (990 RU)”, “performed by injecting different concentrations of” for “captured on”, “analytes in triplicate.” for “remaining 3 flow cells.”
as §2

[2] = molecular target: T3, gp120 binding to Tubulin β-3 (Homo sapiens, UniProt Q13509); assay: SPR competition: gp120 premixed with Helix peptide injected over TUBB3; conditions: for SPR response (2-1) RU, Fc2: Tubulin β-3 1092 RU: 60 sec injection
T3 construct: purchased MyBioSource (TUBB3); Immunodiagnostics Inc, Woburn, Mass; (gp120s)
Description: (§4) BIACORE® T200™ was used to determine the kinetic parameters for the binding of recombinant TUBB3, tubulin dimer, and assembled MTs to gp120s in the absence and presence of Helix-A peptide. […] Representative data are from one of three independent experiments.
as §3

[3] = system: gp120 binding to microtubules; assay: SPR competition: gp120 premixed with Helix peptide injected over microtubules; design: species or system Porcine; conditions: for SPR response (4-1) RU, Fc4: Microtubules 970 RU: 60 sec injection
Description: as §4, §3

[4] = 100 nM GP120IIIB + 1 uM peptide
[5] = 100 nM GP120IIIB + 10 uM peptide
[6] = gp120s 100 nM premixed with Helix-A peptide 10 μM

Compound: CC[C@H](C)[C@H](NC(=O)[C@H](CC(=O)O)NC(=O)[C@H](CCC(=O)O)NC(=O)[C@H](Cc1c[nH]cn1)NC(=O)[C@H](CCSC)NC(=O)[C@H](CCC(N)=O)NC(=O)[C@H](CCC(=O)O)NC(=O)[C@@H](NC(=O)[C@H](CCSC)NC(=O)[C@H](CC(=O)O)NC(=O)[C@@H](N)CC(N)=O)C(C)C)C(=O)N[C@H](C(=O)N[C@@H](CO)C(=O)N[C@@H](CC(C)C)C(=O)N[C@@H](Cc1c[nH]c2ccccc12)C(=O)N[C@@H](CC(=O)O)C(=O)N[C@@H](CCC(N)=O)C(=O)N[C@@H](CO)C(=O)N[C@@H](CC(C)C)C(=O)N[C@@H](CCCCN)C(=O)O)[C@@H](C)CC [Helix A] (H-NDMVEQMHEDIISLWDQSLK-OH; N-terminus and C-terminus assumed)
- binding to tubulin β-3 (dot blot) (tubulin β-3): binding
- prevention of gp120 effect on somal accumulation of mitochondria (primary cortical neurons): but not
- prevention of gp120-mediated mitochondrial morphological abnormalities (length, area) (primary cortical neurons; STORM): but not
- SPR response (4-1) RU, Fc4: Microtubules 970 RU (assembled MTs): N/B
- prevention of gp120-mediated neurite pruning / synaptic simplification (rat cortical neurons): but not
- SPR response (3-1) RU, Fc3: Tubulin Dimer 1900 RU [1, 4]: 17 RU and 18.4 RU
- SPR response (3-1) RU, Fc3: Tubulin Dimer 1900 RU [1, 5]: 5 RU and 3.5 RU
- prevention of gp120IIIB binding to the tubulin dimer ([1]; gp120IIIB): prevents
- competition for gp120s binding to tubulin dimer [1, 6]: competes
- SPR response (2-1) RU, Fc2: Tubulin β-3 1092 RU (recombinant TUBB3; 1 uM peptide alone): 0.9 RU and 0.7 RU
- SPR response (2-1) RU, Fc2: Tubulin β-3 1092 RU (recombinant TUBB3; 10 uM peptide alone): 5 RU and 4.4 RU
- SPR response (3-1) RU, Fc3: Tubulin Dimer 1900 RU (tubulin dimer): 0.4 RU and 0.5 RU
- SPR response (2-1) RU, Fc2: Tubulin β-3 1092 RU [2, 4]: 30 RU and 33.3 RU
- SPR response (2-1) RU, Fc2: Tubulin β-3 1092 RU [2, 5]: 10 RU and 6.5 RU
- SPR response (2-1) RU, Fc2: Tubulin β-3 1092 RU ([2]; 100 nM GP120MN + 1 uM peptide): 7 RU
- prevention of gp120IIIB binding to tubulin β-3 ([2]; gp120IIIB): prevents
- prevention of gp120MN binding to tubulin β-3 ([2]; gp120MN): prevents
- competition for gp120s binding to TUBB3 [2, 6]: competes
- SPR response (4-1) RU, Fc4: Microtubules 970 RU [3, 4]: 15 RU and 16.7 RU
- SPR response (4-1) RU, Fc4: Microtubules 970 RU [3, 5]: 3.8 RU and 2.7 RU
- prevention of gp120IIIB binding to microtubules ([3]; gp120IIIB): prevents
- competition for gp120s binding to assembled MTs [3, 6]: competes
